These are yes or no findings as the source states them, for the method shown. In cells and extracts the contact can be indirect. Some binding calls cover weakened binding; strength is not graded here. Tags and fused reporters may be left off the sequences shown.

By UniProt entry, the sequences of proteins in these tests, tags left out.
UniProt Q61037: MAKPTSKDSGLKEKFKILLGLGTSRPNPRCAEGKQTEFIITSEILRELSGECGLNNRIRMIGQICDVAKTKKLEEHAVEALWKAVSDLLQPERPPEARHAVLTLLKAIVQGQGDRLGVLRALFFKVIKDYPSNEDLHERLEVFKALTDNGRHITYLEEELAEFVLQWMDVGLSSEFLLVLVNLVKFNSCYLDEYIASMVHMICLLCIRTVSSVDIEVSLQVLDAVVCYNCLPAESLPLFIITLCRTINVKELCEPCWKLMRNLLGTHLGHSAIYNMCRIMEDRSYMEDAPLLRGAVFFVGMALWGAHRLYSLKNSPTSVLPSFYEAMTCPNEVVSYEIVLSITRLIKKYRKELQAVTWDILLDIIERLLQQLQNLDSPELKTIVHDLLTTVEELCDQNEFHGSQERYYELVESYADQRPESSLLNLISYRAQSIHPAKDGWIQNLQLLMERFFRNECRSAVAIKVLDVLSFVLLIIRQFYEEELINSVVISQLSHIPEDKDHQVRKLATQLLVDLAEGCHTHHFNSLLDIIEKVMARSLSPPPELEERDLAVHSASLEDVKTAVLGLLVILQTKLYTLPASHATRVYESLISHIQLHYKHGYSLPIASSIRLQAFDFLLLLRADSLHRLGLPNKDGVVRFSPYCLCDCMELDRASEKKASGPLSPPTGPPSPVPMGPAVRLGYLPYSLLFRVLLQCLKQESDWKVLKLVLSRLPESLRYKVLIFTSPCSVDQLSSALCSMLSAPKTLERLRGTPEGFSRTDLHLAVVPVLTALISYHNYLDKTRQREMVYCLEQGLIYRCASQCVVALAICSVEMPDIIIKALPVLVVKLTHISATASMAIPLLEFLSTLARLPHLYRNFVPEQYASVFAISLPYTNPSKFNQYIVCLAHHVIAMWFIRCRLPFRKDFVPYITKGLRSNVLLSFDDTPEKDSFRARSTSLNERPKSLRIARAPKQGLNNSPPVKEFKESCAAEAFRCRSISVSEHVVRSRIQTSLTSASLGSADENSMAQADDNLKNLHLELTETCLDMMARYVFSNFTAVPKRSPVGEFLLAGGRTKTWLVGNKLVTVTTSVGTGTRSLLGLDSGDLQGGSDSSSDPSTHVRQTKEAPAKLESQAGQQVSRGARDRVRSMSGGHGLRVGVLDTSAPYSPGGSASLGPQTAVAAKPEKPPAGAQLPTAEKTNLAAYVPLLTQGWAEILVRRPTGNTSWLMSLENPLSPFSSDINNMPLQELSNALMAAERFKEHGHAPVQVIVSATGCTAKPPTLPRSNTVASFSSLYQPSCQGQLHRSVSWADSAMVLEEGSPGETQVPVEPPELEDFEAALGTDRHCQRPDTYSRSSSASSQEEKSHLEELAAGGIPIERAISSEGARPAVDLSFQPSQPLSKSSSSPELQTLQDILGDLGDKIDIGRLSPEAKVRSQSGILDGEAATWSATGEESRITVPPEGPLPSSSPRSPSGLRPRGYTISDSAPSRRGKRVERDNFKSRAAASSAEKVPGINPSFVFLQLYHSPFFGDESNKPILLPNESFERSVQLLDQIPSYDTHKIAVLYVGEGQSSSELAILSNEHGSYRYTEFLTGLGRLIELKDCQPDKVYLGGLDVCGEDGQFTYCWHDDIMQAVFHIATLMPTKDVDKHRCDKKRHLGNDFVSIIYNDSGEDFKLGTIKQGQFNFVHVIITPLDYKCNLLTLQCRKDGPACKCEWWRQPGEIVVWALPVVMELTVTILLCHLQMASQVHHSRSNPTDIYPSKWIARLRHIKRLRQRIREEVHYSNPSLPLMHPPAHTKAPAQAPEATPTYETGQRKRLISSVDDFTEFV

In experiment [1] the target is T1, FLAG-14-3-3γ (UniProt P61981).
T1 sequence: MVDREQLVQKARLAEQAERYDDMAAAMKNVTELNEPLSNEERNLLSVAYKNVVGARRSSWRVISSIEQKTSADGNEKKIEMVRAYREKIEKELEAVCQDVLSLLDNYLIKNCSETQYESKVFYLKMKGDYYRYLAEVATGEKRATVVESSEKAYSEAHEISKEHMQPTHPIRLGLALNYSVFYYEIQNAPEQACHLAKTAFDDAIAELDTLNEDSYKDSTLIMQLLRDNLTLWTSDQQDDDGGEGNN
The experiment in a line: co-IP; anti-FLAG IP from NIH3T3 cells stably expressing FLAG-14-3-3γ or FLAG-14-3-3σ that were treated with LY294002; immunoblot for p110 and TSC2.

The next experiment deals with T2, GST-14-3-3γ (UniProt P61981).
T2 sequence: T1 sequence
The experiment in a line: pull-down; GST-14-3-3 bound to glutathione-Sepharose beads, incubated with precleared NIH3T3 cell lysates 2 h at 4°C, washed three times with PBS, immunoblot for Raf-1, PI3K p110 and TSC2; only the target purified. In general terms: In western blotting, separated proteins are transferred to a membrane and probed.

The target in experiment [2] is T1, FLAG-14-3-3γ. The experiment in a line: co-IP; 1 mg lysate of NIH3T3 cells stably expressing FLAG-14-3-3γ or FLAG-14-3-3σ, 5 µg anti-Flag antibody overnight at 4°C, protein A/G beads, washed with RIPA buffer, immunoblot; reciprocal IPs with anti-Raf-1, anti-p110 and anti-TSC2; also from cells treated with PD98059 (interaction with p110 not eliminated, with TSC2 reduced).

In the case of TSC2 (from UniProt Q61037 1-1814), the binding result is given as “no binding (condition: cells treated with LY294002)” with FLAG-14-3-3γ [1], “binds” in the experiment with GST-14-3-3γ and “binds” with FLAG-14-3-3γ [2].

For “Raf-1 (from UniProt Q99N57 1-648) (enzyme)”, the binding result with GST-14-3-3γ and in the experiment with FLAG-14-3-3γ [2] was “binds” throughout.

The values are drawn from paper PMC2900177.
